Measurements: PMC11601584, “The RNA receptor RIG-I binding synthetic oligodeoxynucleotide promotes pneumonia survival”
For at least one entry, the source does not settle the construct or the ends of the probe. For part of these data: Results from cells or extracts need not show a direct contact. Protein sequences can lack the tags named with them. For part of these data: At least one verdict rests on a figure or table, not on a statement of the authors.

Columns and labels:
[1] = molecular target: T1, rhRIG-I (236-925), CARD-less (Homo sapiens) (UniProt O95786); assay: fluorescence anisotropy; details: complete phosphorothioate backbone, FP: 20 mM Hepes pH 7.5, 150 mM NaCl, 2 mM TCEP, 4 mM MgCl2, 5% glycerol, 25 C, 2.5 nM labeled oligo, recombinant protein, residues 236-925, protein details: N-terminal His-tag, removed by TEV, label: 5' FAM, single-stranded DNA
T1 sequence (looked up): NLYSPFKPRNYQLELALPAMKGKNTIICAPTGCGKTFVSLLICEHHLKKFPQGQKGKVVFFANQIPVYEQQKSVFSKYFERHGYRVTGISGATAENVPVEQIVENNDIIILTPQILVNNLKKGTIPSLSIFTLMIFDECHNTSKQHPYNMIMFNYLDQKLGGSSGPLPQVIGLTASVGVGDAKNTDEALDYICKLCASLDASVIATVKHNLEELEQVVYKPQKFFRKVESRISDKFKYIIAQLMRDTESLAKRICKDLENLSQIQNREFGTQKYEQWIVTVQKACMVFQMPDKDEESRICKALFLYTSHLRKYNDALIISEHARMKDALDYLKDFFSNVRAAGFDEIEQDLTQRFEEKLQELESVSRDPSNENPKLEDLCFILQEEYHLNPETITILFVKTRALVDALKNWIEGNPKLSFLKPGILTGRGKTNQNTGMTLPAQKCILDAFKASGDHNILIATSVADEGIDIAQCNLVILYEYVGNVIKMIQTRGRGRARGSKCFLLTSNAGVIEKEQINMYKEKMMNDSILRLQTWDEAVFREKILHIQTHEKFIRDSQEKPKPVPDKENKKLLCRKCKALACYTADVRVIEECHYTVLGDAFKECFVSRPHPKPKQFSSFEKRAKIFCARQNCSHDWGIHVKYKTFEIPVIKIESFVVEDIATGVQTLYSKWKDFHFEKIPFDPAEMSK

[2] = molecular target: T2, RIG-I, endogenous, HBEC3-KT cytosolic lysate (Homo sapiens) (UniProt O95786); assay: pull-down (streptavidin, anti-RIG-I immunoblot); details: lysate of ODN-treated cells; complete phosphorothioate backbone; protein in an extract; single-stranded DNA
T2 sequence (looked up, limits assumed): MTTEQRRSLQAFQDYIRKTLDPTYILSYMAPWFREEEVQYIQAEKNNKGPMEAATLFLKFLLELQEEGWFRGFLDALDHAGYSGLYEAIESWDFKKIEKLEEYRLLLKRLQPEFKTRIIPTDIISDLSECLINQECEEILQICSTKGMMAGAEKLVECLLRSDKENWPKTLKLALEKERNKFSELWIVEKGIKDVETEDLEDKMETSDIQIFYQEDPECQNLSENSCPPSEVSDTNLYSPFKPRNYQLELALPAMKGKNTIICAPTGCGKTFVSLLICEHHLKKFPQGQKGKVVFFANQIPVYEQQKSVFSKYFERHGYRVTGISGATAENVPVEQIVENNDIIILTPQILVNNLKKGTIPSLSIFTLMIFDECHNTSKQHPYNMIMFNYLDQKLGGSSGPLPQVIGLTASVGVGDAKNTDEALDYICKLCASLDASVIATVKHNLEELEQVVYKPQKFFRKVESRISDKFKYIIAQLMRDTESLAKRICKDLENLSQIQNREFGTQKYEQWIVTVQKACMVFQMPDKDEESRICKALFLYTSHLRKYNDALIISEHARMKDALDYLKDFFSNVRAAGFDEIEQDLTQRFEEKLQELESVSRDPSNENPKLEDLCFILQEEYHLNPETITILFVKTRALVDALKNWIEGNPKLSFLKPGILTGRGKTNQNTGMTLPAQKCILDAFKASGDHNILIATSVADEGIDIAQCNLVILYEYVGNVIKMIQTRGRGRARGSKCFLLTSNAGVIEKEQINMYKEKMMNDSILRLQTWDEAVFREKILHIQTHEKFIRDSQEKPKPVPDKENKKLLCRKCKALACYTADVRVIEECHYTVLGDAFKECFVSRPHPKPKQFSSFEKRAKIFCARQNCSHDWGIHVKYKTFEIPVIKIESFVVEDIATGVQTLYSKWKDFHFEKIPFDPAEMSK

[3] = molecular target: T3, RIG-I, endogenous, MLE-15 cytosolic lysate (Mus musculus) (UniProt Q6Q899); assay: pull-down (streptavidin, anti-RIG-I immunoblot); details: lysate of ODN-treated cells, RNA polymerase III inhibitor ML-60218 had no effect; complete phosphorothioate backbone; protein in an extract; single-stranded …
T3 sequence (looked up, limits assumed): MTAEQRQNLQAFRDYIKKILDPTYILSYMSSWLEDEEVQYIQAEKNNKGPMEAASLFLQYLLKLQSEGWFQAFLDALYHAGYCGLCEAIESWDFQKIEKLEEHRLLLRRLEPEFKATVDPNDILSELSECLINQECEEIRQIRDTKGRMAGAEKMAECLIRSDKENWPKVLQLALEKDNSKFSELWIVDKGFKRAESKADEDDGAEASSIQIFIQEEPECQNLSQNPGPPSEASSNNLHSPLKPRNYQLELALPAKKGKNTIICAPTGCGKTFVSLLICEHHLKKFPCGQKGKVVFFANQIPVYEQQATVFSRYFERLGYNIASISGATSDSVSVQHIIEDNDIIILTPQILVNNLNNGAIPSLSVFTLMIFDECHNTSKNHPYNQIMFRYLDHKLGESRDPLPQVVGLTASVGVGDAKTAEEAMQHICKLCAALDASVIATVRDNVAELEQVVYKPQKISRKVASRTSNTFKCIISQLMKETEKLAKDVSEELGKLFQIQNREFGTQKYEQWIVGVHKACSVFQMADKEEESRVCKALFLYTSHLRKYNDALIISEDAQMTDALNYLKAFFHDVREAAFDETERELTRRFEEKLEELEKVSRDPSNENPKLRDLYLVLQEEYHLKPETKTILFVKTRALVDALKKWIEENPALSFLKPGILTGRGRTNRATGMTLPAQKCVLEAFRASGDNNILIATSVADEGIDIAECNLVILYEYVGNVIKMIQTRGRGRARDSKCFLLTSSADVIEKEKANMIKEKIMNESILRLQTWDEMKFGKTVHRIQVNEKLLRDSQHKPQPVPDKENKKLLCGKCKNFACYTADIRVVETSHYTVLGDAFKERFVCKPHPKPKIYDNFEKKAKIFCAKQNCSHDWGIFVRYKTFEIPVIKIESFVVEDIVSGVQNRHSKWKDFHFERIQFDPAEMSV

[4] = molecular target: T2, RIG-I, endogenous, HBEC3-KT cytosolic lysate (Homo sapiens); assay: co-immunoprecipitation (anti-RIG-I, FITC fluorescence); details: lysate of ODN-treated cells; complete phosphorothioate backbone; protein in an extract; single-stranded DNA
[5] = molecular target: T3, RIG-I, endogenous, MLE-15 cytosolic lysate (Mus musculus); assay: as above; details: lysate of ODN-treated cells; complete phosphorothioate backbone; protein in an extract; single-stranded DNA

TCGTCGTCGTTCGAACGACGTTGAT [ODN M362, FAM]
binding result ([1]; ADP-AlF4, 4 mM MgCl2, Kd only in figure): binds
binding result ([1]; ATP, 4 mM MgCl2, Kd only in figure): binds

TCGTCGTCGTTCGAACGACGTTGAT [ODN M362, biotinylated]
binding result [2]: binds
binding result [3]: binds

TCGTCGTCGTTCGAACGACGTTGAT [ODN M362, FITC]
binding result [4]: binds
binding result [5]: binds
